PubChem BioAssay AID1259308, NCATS | 2017
Assay: 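Candidate targets for better recombinant protein yield in mammalian cells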 (primary screen). Cells: human HEK293 embryonic kidney cells stably expressing firefly luciferase (HEK-CMV-Luc2-Hygro). Reagents: single siRNA against human genes, 0.8 pmol siRNA per well. Time to read-out: 72 h. Detection: 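Luciferase light (ONE-Glo) measured on one replicate plate set and viability (CellTiter-Glo) on the other, scaled to a negative control siRNA, with robust z-scores and luciferase per cell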. Reading the numbers: total luciferase, z-score and total luciferase, % of control: higher = more reporter protein produced; luciferase per cell, z-score: higher = more reporter output per viable cell; viable cells, % of control: higher = more viable cells. Rule for the call: 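Active when the median/MAD z-score for overall luciferase is greater than 3; a gene was taken forward for validation with new siRNAs if at least two of its three siRNAs passed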. Meaning of the calls: active = raised luciferase; inactive = no rise.
The deposit covers about 59,000 reagents; shown is a part drawn at random. Of all reagents, about 1,510 (2.6%) are marked active. 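Calls use total luciferase alone and ignore viability, so some active siRNAs may act by altering cell number.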 A number with no mark means an inactive call. The numbers tell different reagents against one gene apart. No sequences are given here.

| gene | reagent | total luciferase, z-score | total luciferase, % of control | luciferase per cell, z-score | viable cells, % of control |
| --- | --- | --- | --- | --- | --- |
| C5orf46 (chromosome 5 open reading frame 46) | 1 | -0.152 | 78.9 | -0.0956 | 90.4 |
| C5orf46 (chromosome 5 open reading frame 46) | 2 | -1.29 | 56.3 | -1.47 | 92.6 |
| C5orf46 (chromosome 5 open reading frame 46) | 3 | -0.983 | 62.3 | -0.401 | 77.4 |
| TOP1 (DNA topoisomerase I) | 1 | 0.786 | 97.5 | 0.328 | 99.9 |
| TOP1 (DNA topoisomerase I) | 2 | -0.632 | 69.3 | -0.518 | 88.8 |
| TOP1 (DNA topoisomerase I) | 3 | -0.117 | 79.6 | 0.367 | 80.7 |
| SC5D (sterol-C5-desaturase) | 1 | -0.151 | 78.9 | -0.506 | 101 |
| SC5D (sterol-C5-desaturase) | 2 | -0.473 | 72.5 | -1.17 | 110 |
| SC5D (sterol-C5-desaturase) | 3 | -0.771 | 66.6 | -0.277 | 80 |
| PRMT3 (protein arginine methyltransferase 3) | 1 | -0.00372 | 81.8 | 0.837 | 73.3 |
| PRMT3 (protein arginine methyltransferase 3) | 2 | -0.0659 | 80.6 | -0.429 | 101 |
| PRMT3 (protein arginine methyltransferase 3) | 3 | -0.181 | 78.3 | -0.268 | 93.9 |
| HTR3A (5-hydroxytryptamine receptor 3A) | 1 | -1.1 | 60 | -1.52 | 100 |
| HTR3A (5-hydroxytryptamine receptor 3A) | 2 | -0.284 | 76.2 | -0.655 | 101 |
| HTR3A (5-hydroxytryptamine receptor 3A) | 3 | 0.019 | 82.3 | -0.521 | 105 |
| ARG2 (arginase 2) | 1 | -0.777 | 66.4 | -1.22 | 102 |
| ARG2 (arginase 2) | 2 | -0.776 | 66.5 | -1.61 | 113 |
| ARG2 (arginase 2) | 3 | 1.49 | 111 | 1.46 | 84.8 |
| SLC43A1 | 1 | -2.69 | 28.4 | -2.14 | 55.7 |
| SLC43A1 | 2 | -0.0506 | 80.9 | 0.569 | 77.8 |
| SLC43A1 | 3 | -1.34 | 55.2 | -1.49 | 91.3 |
| EBLN1 (endogenous Bornavirus like nucleoprotein 1) | 1 | -1.45 | 53 | -0.742 | 72 |
| EBLN1 (endogenous Bornavirus like nucleoprotein 1) | 2 | 3.91 (active) | 160 | 3.3 | 74.8 |
| EBLN1 (endogenous Bornavirus like nucleoprotein 1) | 3 | 1.04 | 103 | 1.11 | 85.6 |
| PRRC1 (proline rich coiled-coil 1) | 1 | -1.12 | 59.7 | -0.739 | 81 |
| PRRC1 (proline rich coiled-coil 1) | 2 | 0.086 | 83.6 | 0.585 | 80.1 |
| PRRC1 (proline rich coiled-coil 1) | 3 | 2.1 | 124 | 1.89 | 84.1 |
| SULT1C2 (sulfotransferase family 1C member 2) | 1 | -0.0932 | 80 | -0.565 | 104 |
| SULT1C2 (sulfotransferase family 1C member 2) | 2 | -0.241 | 77.1 | 0.916 | 67.7 |
| SULT1C2 (sulfotransferase family 1C member 2) | 3 | 0.39 | 89.6 | 0.104 | 97.4 |
| ACSM1 (acyl-CoA synthetase medium chain family member 1) | 1 | -0.316 | 75.6 | -0.168 | 88.3 |
| ACSM1 (acyl-CoA synthetase medium chain family member 1) | 2 | 0.0498 | 82.9 | 0.593 | 79.2 |
| ACSM1 (acyl-CoA synthetase medium chain family member 1) | 3 | 0.198 | 85.8 | 0.606 | 81.8 |
| SLCO2B1 | 1 | 0.0475 | 82.8 | 0.22 | 87.3 |
| SLCO2B1 | 2 | -1.18 | 58.4 | -1.94 | 109 |
| SLCO2B1 | 3 | 0.365 | 89.2 | 0.0628 | 98 |
| MED12 (mediator complex subunit 12) | 1 | 1.18 | 105 | 1.36 | 82.4 |
| MED12 (mediator complex subunit 12) | 2 | -1.3 | 56 | -1.21 | 86 |
| MED12 (mediator complex subunit 12) | 3 | -2.21 | 38 | -2.61 | 84.4 |
| SMARCA1 (SNF2 related chromatin remodeling ATPase 1) | 1 | 0.187 | 85.6 | 0.692 | 79.7 |
| SMARCA1 (SNF2 related chromatin remodeling ATPase 1) | 2 | -0.635 | 69.2 | -0.9 | 98.1 |
| SMARCA1 (SNF2 related chromatin remodeling ATPase 1) | 3 | 1.25 | 107 | 0.414 | 107 |
| VARS2 (valyl-tRNA synthetase 2, mitochondrial) | 1 | 0.191 | 85.7 | -0.194 | 101 |
| VARS2 (valyl-tRNA synthetase 2, mitochondrial) | 2 | 1 | 102 | 1.44 | 77.8 |
| VARS2 (valyl-tRNA synthetase 2, mitochondrial) | 3 | 0.674 | 95.3 | 0.545 | 92.3 |
| SERPINE3 (serpin family E member 3) | 1 | 1.54 | 113 | 1.8 | 78.4 |
| SERPINE3 (serpin family E member 3) | 2 | 2.83 | 138 | 2.49 | 80.1 |
| SERPINE3 (serpin family E member 3) | 3 | 1.95 | 121 | 0.217 | 127 |
| RPS23 (ribosomal protein S23) | 1 | -1.67 | 48.6 | -0.0773 | 55.4 |
| RPS23 (ribosomal protein S23) | 2 | -1.93 | 43.5 | -1.22 | 66.9 |
| RPS23 (ribosomal protein S23) | 3 | -2.72 | 27.8 | -2.85 | 65.7 |
| OGFR (opioid growth factor receptor) | 1 | -2.63 | 29.6 | -2.63 | 66.1 |
| OGFR (opioid growth factor receptor) | 2 | 0.0412 | 82.7 | -0.272 | 99.3 |
| OGFR (opioid growth factor receptor) | 3 | -2.69 | 28.5 | -2.77 | 65.9 |
| DNAI1 (dynein axonemal intermediate chain 1) | 1 | -2.12 | 39.8 | -2.84 | 93.9 |
| DNAI1 (dynein axonemal intermediate chain 1) | 2 | -0.585 | 70.3 | -0.00435 | 78.6 |
| DNAI1 (dynein axonemal intermediate chain 1) | 3 | 1.48 | 111 | 2.13 | 71.1 |

A few values from the entries so far.
Under “total luciferase, z-score”, PRMT3 (protein arginine methyltransferase 3) #2 shows -0.0659
DNAI1 (dynein axonemal intermediate chain 1) #2, total luciferase, z-score → -0.585
SERPINE3 (serpin family E member 3) #2, total luciferase, z-score = 2.83
